Measured data: PubChem BioAssay AID1224830 (NIAID, 2016)
Aim: 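Host factors that control LPS-induced TNF expression in human macrophages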 (primary screen). Cell system: human THP-1 monocytic leukaemia cells, TNF dual-luciferase reporter clone, PMA-differentiated to macrophage-like cells. Reagents: siRNA pool against human genes, 50 nM. Duration: LPS for 4 h, given about 3 days after siRNA transfection. Challenge: bacterial LPS (TLR4 ligand), 10 ng/ml. Detection: 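Ratio of firefly to renilla light, scaled to the plate median and expressed as a robust z-score per replicate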. Reading the numbers: TNF reporter robust z-score: higher = stronger TNF reporter response to LPS. Active means: 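a well is active when its z-score exceeds 2.8 or falls below -1.5; control wells carry no call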.
The whole screen tested about 18,000 reagents; shown is a random part of them. About 2,900 of them (16%) count as active. 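Calls are made per well; low scores hint the gene aids the LPS response, high scores that it dampens it.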 Unmarked entries are inactive. Repeated entries: four replicate wells of each siRNA pool.

ASB13: TNF reporter robust z-score = -1.51 (active)
ASB13: TNF reporter robust z-score = -0.29
ASB13: TNF reporter robust z-score = 1.54
ASB13: TNF reporter robust z-score = -0.26
RECQL: TNF reporter robust z-score = 0.88
RECQL: TNF reporter robust z-score = -0.67
RECQL: TNF reporter robust z-score = 0.53
RECQL: TNF reporter robust z-score = 1.04
CIC: TNF reporter robust z-score = -0.85
CIC: TNF reporter robust z-score = -0.13
CIC: TNF reporter robust z-score = -0.58
CIC: TNF reporter robust z-score = -0.56
CLDND2: TNF reporter robust z-score = -1.47
CLDND2: TNF reporter robust z-score = 0.18
CLDND2: TNF reporter robust z-score = -0.01
CLDND2: TNF reporter robust z-score = 0.37
SLC25A53: TNF reporter robust z-score = -0.71
SLC25A53: TNF reporter robust z-score = -0.9
SLC25A53: TNF reporter robust z-score = -0.25
SLC25A53: TNF reporter robust z-score = -1.02
PDZD8: TNF reporter robust z-score = 0.06
PDZD8: TNF reporter robust z-score = 1.25
PDZD8: TNF reporter robust z-score = -0.66
PDZD8: TNF reporter robust z-score = -0.89
ERCC6L: TNF reporter robust z-score = 0.17
ERCC6L: TNF reporter robust z-score = 0.59
ERCC6L: TNF reporter robust z-score = 0.1
ERCC6L: TNF reporter robust z-score = 1.5
LILRA2: TNF reporter robust z-score = 0.22
LILRA2: TNF reporter robust z-score = 0.17
LILRA2: TNF reporter robust z-score = 0.08
KRT6B: TNF reporter robust z-score = -1.18
KRT6B: TNF reporter robust z-score = -1.04
KRT6B: TNF reporter robust z-score = -1.22
KRT6B: TNF reporter robust z-score = -0.55
INSIG1: TNF reporter robust z-score = 1.03
INSIG1: TNF reporter robust z-score = 1.9
INSIG1: TNF reporter robust z-score = 2.71
INSIG1: TNF reporter robust z-score = 1.92
ADRA2A: TNF reporter robust z-score = 1.43
ADRA2A: TNF reporter robust z-score = 1.66
ADRA2A: TNF reporter robust z-score = 1.99
ADRA2A: TNF reporter robust z-score = 0.91
FERD3L: TNF reporter robust z-score = -1.33
FERD3L: TNF reporter robust z-score = -1.13
FERD3L: TNF reporter robust z-score = -1.29
FERD3L: TNF reporter robust z-score = -1.42
